Test results as given in PubChem BioAssay AID1458 (National Center for Advancing Translational Sciences (NCATS), 2008).
In all, about 210,000 compounds went through this assay and about 5,900 (2.8%) were called active. Another 5% or so got no clear call; they are omitted. Calls come from the whole dose curve; as a rule, active = well fitted activation curve with a large enough effect; inconclusive = small, poorly fitted or top-dose-only effect; inactive = no such curve, though single readings can be large or run the other way. This is a selection; strong and weak results do not stand in their true shares. The source gives no active or inactive call for entries shown without one.

assay: qHTS Assay for Enhancers of SMN2 Splice Variant Expression; settings: HEK293 SMN2-luciferase splicing reporter, luminescence, 30-36 h; activity change, positive = activation: at 46.1 µM (top of the series) unless noted; note: nearly all actives have a fitted effect of over 55% in size; for activity change, positive = activation: % of control where 0% means no effect
In short: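 HEK293 cells carry an SMN2 […]–luciferase reporter in which exon 7 inclusion puts luciferase in frame. Cells were plated 10-12 h before compound addition, then incubated 30-36 h at 37C. ONE-Glo luminescence was read; sodium butyrate at 4.5 mM final served as control.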
Potency is the fitted concentration of half-maximal effect.

| Compound | Potency | activity change, positive = activation |
| --- | --- | --- |
| COc1ccc2cc(CCNC(=O)c3cccs3)c(=O)[nH]c2c1 | active: 6.31 µM |  |
| CCOC(=O)Cc1csc(NC(=O)COc2ccccc2OC)n1 |  | 31.7% |
| CC#CCOC(=O)c1c(C)nc2sc3c(c2c1N)CCC(O)C3 (stereo unspecified) |  | inactive: -59.3% |
| Cc1cccc(OCC(=O)NC(=S)Nc2ccc(S(=O)(=O)NC3CCCCC3)cc2)c1 |  | -18.3% |
| O=C(c1ccco1)N1CCC[C@@]2(CCN(c3cccc(-c4ccccc4)c3)C2)C1 |  | inactive: -33.8% |
| CC(C)NC(=O)COc1ccccc1C#N |  | inactive: -8.55% |
| Cc1cc(C)c2nc(NNC(=O)c3cc(-c4cccs4)nc4ccccc34)sc2c1 |  | -95.6% |
| COC(=O)CC1C(=O)NCCN1C(=O)CSc1nnc(Nc2ccc(OC)cc2)s1 (stereo unspecified) |  | 42.3% |
| COc1ccc(-n2nc(C(=O)N3CCN(Cc4ccc5c(c4)OCO5)CC3)c3ccccc3c2=O)cc1 |  | 55.8% |
| Cc1nc2nc(-c3cccnc3)nn2c(C)c1Cl |  | 78.7% |
| N/C(=N\OC(=O)c1cc(Cl)ccc1Cl)c1ccncc1 |  | 69.8% |
| COc1ccccc1-c1nccc(NCc2cccc(C)c2)n1 |  | inactive: -31.8% |
| CN(C)c1ccc(/C=N/NC(=O)c2ccc(CN3CCOCC3)cc2)cc1Br |  | inactive: -38.3% |
| C=CCn1c(SCC(=O)Nc2cc(C)nn2-c2ccccc2)nnc1C1CCCCC1 |  | 30.3% |
| COCCn1c(COc2ccccc2)nnc1SCC(N)=O |  | 57.5% |
| Cn1c2ccccc2c2cc(C(=O)N3CCOCC3)sc21 |  | inactive: 3.7% |
| CCn1c(=O)n(CC)c2cc(S(=O)(=O)N3CCOCC3)ccc21 |  | 33.6% |
| O=C(Nc1ccc2c(c1)OCO2)Nc1ccccn1 |  | 180% |
| NC(=O)CSc1oc(-c2cccs2)nc1S(=O)(=O)c1ccc(Br)cc1 |  | 50.5% |

Gathered by group, those above with a halogen

| Compound | Potency | activity change, positive = activation |
| --- | --- | --- |
| Cc1nc2nc(-c3cccnc3)nn2c(C)c1Cl |  | 78.7% |
| N/C(=N\OC(=O)c1cc(Cl)ccc1Cl)c1ccncc1 |  | 69.8% |
| CN(C)c1ccc(/C=N/NC(=O)c2ccc(CN3CCOCC3)cc2)cc1Br |  | inactive: -38.3% |
| NC(=O)CSc1oc(-c2cccs2)nc1S(=O)(=O)c1ccc(Br)cc1 |  | 50.5% |

The list goes on.

| Compound | Potency | activity change, positive = activation |
| --- | --- | --- |
| O=C(N/N=C/c1ccc2c(c1)OCO2)c1ccc(Cn2cc([N+](=O)[O-])cn2)o1 |  | 8.08% |
| O=S(=O)(NCC1CCCO1)c1ccc(Oc2ccccc2)cc1 (stereo unspecified) |  | -39.2% |
| Cc1ccc(NC(=S)NC(=O)c2ccc(-c3ccccc3)cc2)c(C)c1 |  | inactive: -42.6% |
| COc1ccc(/C=C/C(=O)c2ccc3c4c(cccc24)CC3)cc1OC |  | -64.8% |
| C=CCOc1ccc(C(=O)NC2CCCCC2)cc1 |  | 69.5% |
| Cc1ccc(S(=O)(=O)N2CCCC2C(=O)OCc2ccco2)cc1 (stereo unspecified) |  | 80.1% |
| C/C(=N\Nc1nc2ccccc2s1)c1cccs1 |  | -68.3% |
| Cc1ccc(NC(=O)c2scc3c2CCCC3)cc1 | active: 1.41 µM |  |
| Cc1ccc(S(=O)(=O)NC(=O)Nc2ccccc2F)cc1 |  | 57.9% |
| O=C(O)CCc1nn2c3ccccc3nc2n(Cc2ccccc2)c1=O |  | inactive: -21.5% |
| COc1ccc(OCC(=O)Nc2cccc(OC)c2)cc1 |  | 31.1% |
| Cc1cc(NCc2ccco2)nc2cc(O)ccc12 |  | 45.7% |
| Cc1cc(NC(=O)c2ccccc2)sc1C | active: 11.2 µM |  |
| COc1ccc(-c2csc(NC(=O)COC(=O)c3ccco3)n2)cc1 | active: 12.6 µM |  |
| COc1ccc(-c2c[n+]3c(n2-c2ccccc2)CCCCC3)cc1 |  | inactive: -57.9% |
| O=C(OCC#CCSc1nnc(-c2ccc(Br)cc2)o1)c1cccs1 |  | inactive: -44.8% |
| CN(C)/N=N\c1nc[nH]c1C(N)=O |  | inactive: -15.7% [at 20.6 µM] |
| Cc1cc(C(=O)CSc2nnnn2-c2ccc(O)cc2)c(C)n1Cc1ccc2c(c1)OCO2 |  | inactive: -38.1% |
| COc1cccc(NC(=O)/C=C/c2ccccc2[N+](=O)[O-])c1 | active: 3.16 µM |  |

| Compound | Potency | activity change, positive = activation |
| --- | --- | --- |
| CCCCC1=CC2=CC(=O)C(C)(OC(=O)CC)C(=O)C2=CN1CCN1CCOCC1 (stereo unspecified) |  | 33.3% [at 9.22 µM] |
| Cc1cc(C(=O)Nc2ccc(C(=O)O)cc2)c(-c2ccccc2)o1 |  | 43.6% |
| Cc1ccc(C)c(-c2ccc(=O)n(Cc3c(F)cccc3Cl)n2)c1 |  | -77.6% |
| O=c1c(-c2ccccc2)c[nH]n1-c1cccc([N+](=O)[O-])c1 |  | 145% |
| Fc1ccc(C2=Nn3c(nnc3-c3n[nH]c4c3CCC4)SC2)cc1 | active: 20 µM |  |
| CC(C)N1C(=O)CCC1C(=O)NCc1ccco1 (stereo unspecified) |  | -9.8% |
| CC(=O)Nc1cccc(-c2csc(Nc3ccc(Cl)cn3)n2)c1 | active: 11.2 µM |  |
| CCn1c(=NC(=O)c2ccco2)sc2cccc(F)c21 | active: 15.8 µM |  |
| Cc1ccc2oc(-c3cccc(NC(=O)/C=C/c4cccc([N+](=O)[O-])c4)c3C)nc2c1 | active: 12.6 µM |  |
| NS(=O)(=O)c1ccc(CCNC(=O)c2ccc(C#CC3(O)CCCCC3)cc2)cc1 |  | inactive: -54.3% |
| CC1CC(C)(C)Nc2ccc(OC(=O)c3ccco3)cc21 (stereo unspecified) |  | -77.5% |
| COc1ccc(N2CCN(C(=O)c3ccc(NS(=O)(=O)c4ccc(F)cc4)cc3)CC2)cc1 |  | -36.7% |
| C/C(=N\NC(=O)Cc1cccc2ccccc12)c1ccncc1 |  | inactive: -34.5% |
| CCOC(=O)C1=C(C)Nc2ncnn2C1c1ccc2c(c1)OCO2 (stereo unspecified) |  | 23.5% |
| Cc1ccc(-c2cc(N)n(-c3ccccc3)n2)cc1 | active: 11.2 µM |  |
| CC(=O)Nc1sc2c(c1C#N)CC(C)(C)NC2(C)C |  | 47.2% |
| COc1ccc2[nH]cc(CCNC(=O)Nc3cc(C)cc(C)c3)c2c1 |  | 35.3% |
| CCC(=O)Nc1ccc(/C(C)=N/NC(=O)c2c(-c3ccccc3Cl)noc2C)cc1 |  | 27.8% |
